About 2,100 (0.66%) of roughly 320,000 compounds were called active. The shares of active, inactive and inconclusive entries below differ from those in the screen. Calls follow the shape of the dose curve; as a rule, active = well fitted inhibition curve with a large enough effect in the signal ratio, with a control signal flat (not every such curve was filed as active); inconclusive = small, poorly fitted or top-dose-only effect, or effect the other way, or a change in a side signal; inactive = flat fitted curve, though single readings scatter; the % refers to the signal ratio. A potency beside an inconclusive call is a rough fit, not a confirmed value.
test: qHTS Assay for Lipid Storage Modulators in Drosophila S3 Cells; settings: BODIPY lipid droplet fluorescence, 18-24 h, cells fed with added oleic acid; lipid storage change, negative = inhibition: at 46.1 µM (top of the series) unless noted
Method in brief: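 Drosophila S3 cells got compounds at several concentrations plus oleic acid (400 uM solution). Laser-scanning cytometry with 488 nm excitation read lipid droplets at 500-530 nm and cells at 575-640 nm. Percent activity was relative to 20 uM Triacsin C.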
% is scaled to controls: 0 for no effect and ±100 for the full control effect; potency is read from the fitted curve at half-maximal effect.

Row | Structure (SMILES) | lipid storage change, negative = inhibition | Potency
1 | O=C1NC(=O)[C@]2(Cc3ccccc3N3CCN(c4ccccc4)CC32)C(=O)N1Cc1ccccc1 (stereo partly specified) | inconclusive: 28.2% | 
2 | Fc1ccc(CNC2CN3CCC2CC3)cc1 (stereo unspecified) | inconclusive: 23.5% | 
3 | CCCCCn1c(=O)c(C(=O)Nc2ccccc2Cl)c(O)c2ccccc21 | inconclusive: 15% | 
4 | COc1ccc2c(c1)NP(=S)(Oc1ccccc1)N2 (stereo unspecified) | inconclusive: -0.489% | 
5 | CCOC(=O)C1(CCc2ccccc2)CCN(Cc2cccc3c2OCO3)CC1 |  | inconclusive: 29.1 µM [cytotoxic, single point]
6 | COC(=O)C1=C(c2ccc(OC)c(OC)c2)C[C@@H]2CC[C@H]1N2C(=O)NCc1ccco1 | inconclusive: -4.02% | 
7 | COC(=O)C1=C(c2ccc(-c3ccccc3)c(F)c2)C[C@@H]2CC[C@H]1N2C(=O)N1CCC(C)CC1 | inconclusive: 8.57% | 
8 | CC(C)(C)c1nc(N2CCN(C(=O)c3ccco3)CC2)c2nnn(Cc3ccccc3Cl)c2n1 | inconclusive: -23.7% | 
9 | N[C@@H](Cc1c[nH]c2ccccc12)c1nnc(SCc2ccc(Cl)cc2)o1 | inconclusive: 8.22% | 
10 | CCOP(=O)(OCC)C(NC(=O)c1cccs1)c1ccccc1 (stereo unspecified) |  | inconclusive: 6.51 µM [activator, full curve]
11 | COc1ccc(Cl)cc1C(=O)C1CCCN(CCO)C1 (stereo unspecified) | inconclusive: 12.1% | 
12 | COC(=O)C1=C(c2ccc(F)cc2OCc2ccccc2)C[C@@H]2CC[C@H]1N2C(=O)NC1CCCCC1 | inconclusive: -2.57% | 
13 | COc1ccc(CNCCc2ccc(Cl)cc2)c(OC)c1OC | inconclusive: 37.8% | 
14 | O=C(NC1CN2CCC1CC2)c1ccc(-c2ccc([N+](=O)[O-])cc2)o1 (stereo unspecified) | inconclusive: -8.62% | 
15 | COc1ccc(N2CCN(Cc3nc4ccccc4[nH]3)CC2)cc1 | inactive | 
16 | C=CCn1c(O)c(C(C)=NCCN2CCCCC2)c(=O)[nH]c1=O | inconclusive: 2.45% | 
17 | CCOC(=O)C1SC2(C(F)(F)C(F)F)CC1(O)c1c(c(OC)c3occc3c1OC)O2 (stereo unspecified) | inconclusive: -27.7% | 
18 | COC(=O)C1=C(c2cccc(C#N)c2)C[C@@H]2CC[C@H]1N2C(=O)N1CCC(C)CC1 | inconclusive: -52% | 
19 | Cc1cccc(N2C(=O)NC(=O)/C(=C\c3ccc4c(c3)CCCN4Cc3ccccc3)C2=O)c1 | inconclusive: -33.1% | 
20 | O=C(O)Cn1cc(/C=C2\C(=O)NC(=O)N(Cc3ccco3)C2=O)c2ccccc21 | inconclusive: 15.3% | 
21 | CCCCCn1c(=O)c(C(=O)NCc2ccccc2Cl)c(O)c2ccccc21 |  | inconclusive: 6.51 µM [activator, single point]

Already shown: entries from further up.
Row | Structure (SMILES) | lipid storage change, negative = inhibition | Potency
8 | CC(C)(C)c1nc(N2CCN(C(=O)c3ccco3)CC2)c2nnn(Cc3ccccc3Cl)c2n1 | inconclusive: -23.7% | 
9 | N[C@@H](Cc1c[nH]c2ccccc12)c1nnc(SCc2ccc(Cl)cc2)o1 | inconclusive: 8.22% | 
